## Cleaved PARP after 72 h of treatment

Data from the primary screen of doi:10.1371/journal.pone.0140310, rounded.

Drug key:
dorsomorphin: c1cc(-c2cnn3cc(-c4ccc(OCCN5CCCCC5)cc4)cnc23)ccn1 at 2 µM
SNS-032: CC(C)(C)c1cnc(CSc2cnc(NC(=O)C3CCNCC3)s2)o1 at 0.05 µM
AZD7762: NC(=O)Nc1cc(-c2cccc(F)c2)sc1C(=O)N[C@H]1CCCNC1 at 0.1 µM
OSI-906: C[C@]1(O)C[C@@H](c2nc(-c3ccc4ccc(-c5ccccc5)nc4c3)c3c(N)nccn32)C1 at 2 µM
NVP-TAE684: COc1cc(N2CCC(N3CCN(C)CC3)CC2)ccc1Nc1ncc(Cl)c(Nc2ccccc2S(=O)(=O)C(C)C)n1 at 0.4 µM
ABT-263: CC1(C)CCC(c2ccc(Cl)cc2)=C(CN2CCN(c3ccc(C(=O)NS(=O)(=O)c4ccc(N[C@H](CCN5CCOCC5)CSc5ccccc5)c(S(=O)(=O)C(F)(F)F)c4)cc3)CC2)C1 at 2 µM
FH535: Cc1cc([N+](=O)[O-])ccc1NS(=O)(=O)c1cc(Cl)ccc1Cl at 5 µM

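Human melanoma cells were exposed to two drugs together for 72 h in 1,536-well plates and read by automated microscopy after fixing and staining. Each value is the cleaved-PARP-positive fraction of nuclei relative to DMSO-treated wells, in %, so that 100 equals the control and higher values mean more apoptosis. Concentrations were fixed for each drug; these are the higher of two levels. These are primary screening values without error estimates. The marker varies much from line to line, for technical or biological reasons.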 Only some of the drugs and lines screened are listed, without regard to their results. An entry leaves out what has no value listed here. A dash means that no value is listed here.

Drugs: ABT-263 and AZD7762
A2058: 353
SK-MEL-2: 358
IST-MEL1: 165
WM1745: 4950

Drugs: ABT-263 and dorsomorphin
A2058: 379
SK-MEL-2: 47.8
IST-MEL1: 119

Drugs: FH535 and NVP-TAE684
A2058: 261
SK-MEL-2: 125
IST-MEL1: 369
WM1745: 161

Drugs: NVP-TAE684 and ABT-263
A2058: 476
SK-MEL-2: 259
IST-MEL1: 166

Drugs: ABT-263 and SNS-032
A2058: 180
SK-MEL-2: 617
IST-MEL1: 91.4
WM1745: 3010

Drugs: OSI-906 and ABT-263
A2058: 106
SK-MEL-2: 284
IST-MEL1: 161
WM1745: 4040

Drugs: AZD7762 and SNS-032
A2058: 235
SK-MEL-2: 239
IST-MEL1: 38.4
WM1745: 111

Drugs: OSI-906 and FH535
A2058: 66.2
SK-MEL-2: 83.1
IST-MEL1: 57.4

Drugs: SNS-032 and NVP-TAE684
A2058: 250
SK-MEL-2: 353
IST-MEL1: 30.6
WM1745: 194

Drugs: dorsomorphin and OSI-906
A2058: 148
SK-MEL-2: 210
IST-MEL1: 35.0

Drugs: NVP-TAE684 and OSI-906
A2058: 158
SK-MEL-2: 82.9
IST-MEL1: 99.7

Drugs: AZD7762 and NVP-TAE684
A2058: 471
SK-MEL-2: 143
IST-MEL1: 26.4
WM1745: 503

Drugs: OSI-906 and SNS-032
A2058: 73.3
SK-MEL-2: 317
IST-MEL1: 200
WM1745: 181

Drugs: SNS-032 and FH535
A2058: 52.6
SK-MEL-2: 86.0
IST-MEL1: 186
WM1745: 127

Drugs: dorsomorphin and NVP-TAE684
A2058: 337
SK-MEL-2: 111
IST-MEL1: 34.2
WM1745: 258

Drugs: AZD7762 and OSI-906
A2058: 212
SK-MEL-2: 166
IST-MEL1: 78.4
WM1745: 149

Drugs: ABT-263 and FH535
A2058: 237
SK-MEL-2: 99.7
IST-MEL1: 223

Drugs: FH535 and AZD7762
A2058: 216
SK-MEL-2: 48.1
IST-MEL1: 112
WM1745: 141

Drugs: dorsomorphin and AZD7762
A2058: 191
SK-MEL-2: 152
IST-MEL1: 86.5
WM1745: 221

Drugs: dorsomorphin and FH535
A2058: 204
SK-MEL-2: 48.2
IST-MEL1: 211
WM1745: 153

Drugs: dorsomorphin and SNS-032
A2058: 1000
SK-MEL-2: 1860
IST-MEL1: 201
WM1745: 285

The first 2 entries again:

| Drugs | A2058 | SK-MEL-2 | IST-MEL1 | WM1745 |
|---|---|---|---|---|
| ABT-263 and AZD7762 | 353 | 358 | 165 | 4950 |
| ABT-263 and dorsomorphin | 379 | 47.8 | 119 | - |